Measurements reported in PubChem BioAssay AID1159578 (Peter MacCallum Cancer Centre, 2015).
Here is a random part of about 18,000 reagents tested. Of all reagents, about 1,030 (5.7%) are marked active. 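Inactive calls also include pools with fewer than 3300 nuclei, whose migration was not assessed.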 Raw values are not corrected between plates. Unmarked entries are inactive. Further read-outs or replicates are left out here.

Aim: 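Genome-wide hunt for genes controlling movement of lymphatic endothelial cells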 (primary screen)
Cell system: human lymphatic endothelial cells
Knock-down reagent: siRNA pool against human genes, 40 nM
Timing: 48 h after transfection
Measured: 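Cells stained with dye and imaged after a scratch; covered wound area and nuclei counted, duplicates averaged, migration set against mock wells and turned into a robust z-score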
Scale: migration robust z-score: higher = faster migration into the scratch; nuclei per well: higher = more cells in the well
Hit rule: 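Pools averaging fewer than 3300 nuclei are never called; remaining pools count as changed when migration robust z lies outside -2 to 2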
Meaning of the calls: active = migration changed; inactive = no migration change, or too few cells

Against DDO (D-aspartate oxidase), the values are migration robust z-score 0.29; nuclei per well, duplicate mean 5588.
With knock-down of RABL6 (RAB, member RAS oncogene family like 6), the record shows migration robust z-score 0.46; nuclei per well, duplicate mean 6733.
Against CCL4L2 (C-C motif chemokine ligand 4 like 2), the entry reads migration robust z-score 0.05; nuclei per well, duplicate mean 5333.
Against DLL1 (delta like canonical Notch ligand 1) the deposit lists migration robust z-score -0.8; nuclei per well, duplicate mean 2964.
With knock-down of CDKAL1 (CDKAL1 threonylcarbamoyladenosine tRNA methylthiotransferase), the screen gave migration robust z-score -0.45; nuclei per well, duplicate mean 6641.
AHSA2P (activator of HSP90 ATPase homolog 2, pseudogene) scored migration robust z-score 1.46; nuclei per well, duplicate mean 6490.

Reformatted: entries from further up.
gene symbol | migration robust z-score | nuclei per well, duplicate mean
CDKAL1 (CDKAL1 threonylcarbamoyladenosine tRNA methylthiotransferase) | -0.45 | 6641
AHSA2P (activator of HSP90 ATPase homolog 2, pseudogene) | 1.46 | 6490

The listing continues.
Against ACLY (ATP citrate lyase), the entry reads migration robust z-score 0.02; nuclei per well, duplicate mean 6778.
Knock-down of MRPL40 (mitochondrial ribosomal protein L40) gave: migration robust z-score -0.84; nuclei per well, duplicate mean 5665.
For DNAAF5 (dynein axonemal assembly factor 5) the deposit lists migration robust z-score 2.23 (active); nuclei per well, duplicate mean 7350.
For IFI44L (interferon induced protein 44 like) the deposit lists migration robust z-score 0.13; nuclei per well, duplicate mean 5392.
Depletion of MGMT (O-6-methylguanine-DNA methyltransferase) resulted in: migration robust z-score -0.39; nuclei per well, duplicate mean 7699.
ZNF219 (zinc finger protein 219) gave migration robust z-score 0.6; nuclei per well, duplicate mean 6080.
